These are yes or no findings as the source states them, for the method shown. Some entries that bind do so weakly or less than the wild type.
B1: prominin-1 peptide #3 (…) (peptide)
peptide: LCGNSFSGGQPS
B2: prominin-1 peptide #122 (…) (peptide)
peptide: ITNNTSSVIIEE
B3: prominin-1 peptide #237 (…) (peptide)
peptide: DRVQRQTTTVVA
B4: prominin-1 peptide #640 (…) (peptide)
peptide: CSFAYDLEAKANSLPPGNLRN
B5: prominin-1 peptide #42 (…) (peptide)
peptide: PNIIPVLDEIKS
B6: prominin-1 peptide #77 (…) (peptide)
peptide: LCGVCGYDRHAT

Amino acid sequences for entries named in this document (tags omitted). A change or cut given only in a name is not applied to a line headed by its entry. Chains listed by the source or under a name are the forms on record and can include a tag or linker.
hVEGF (P15692, form named): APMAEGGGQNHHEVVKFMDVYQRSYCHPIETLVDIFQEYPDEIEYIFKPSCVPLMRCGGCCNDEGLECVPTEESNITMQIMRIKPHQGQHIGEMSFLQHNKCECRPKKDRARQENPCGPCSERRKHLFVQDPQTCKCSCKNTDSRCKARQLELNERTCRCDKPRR

target: hVEGF (human) (UniProt P15692); experiment: ELISA and dot blot with synthesized peptide

binding, binds:
B1
B2
B3
B4
B5
B6

target: hVEGF (human) (UniProt P15692); experiment: peptide spot array with hVEGF (FIG. 2B)

binding, binds:
B1
B2
B3
B4
B5
B6

target: hVEGF (human) (UniProt P15692); experiment: VEGF binding: peptide spot array with hVEGF, confirmed by ELISA and dot blot

binding, binds:
B1
B2
B3
B4
B5
B6
